Here are results for 43 molecules from the supplement of paper PMC4807443.

Structures can show the parent of a compound that is named as a salt. The list shows a part of the results. The numbers are fractions of the control, whatever unit the source prints. Most values lie at the level of the controls, where differences are scatter.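 MIN6 is a mouse insulinoma beta-cell line that stably carries a lentiviral reporter in which the Pdx1 and Ins1 promoters each drive a nucleus-targeted fluorescent protein; cells were counted by automated imaging with a Hoechst nuclear stain. In the screen, a drug was a possible hit when its Ins1 promoter readout lay beyond two median absolute deviations from the DMSO controls while Pdx1 activity stayed near normal.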

The subject of this assay is MIN6. The experiment in a line: % Pdx1+ Ins1-low (RFP-only, immature) cells relative to DMSO control (fold of DMSO control); higher = more immature Pdx1+/Ins1-low cells. As to conditions: 8.5 µM; 48 h; glucose 5 mM.
Regarding `COc1ccc(OC)c(C(O)C(C)N)c1` (stereo not drawn) [Methoxamine hydrochloride], the “% Pdx1+ Ins1-low” value came to 0.943.
The same measure for `CCC(=O)O[C@H]1CC[C@H]2[C@@H]3CCC4=CC(=O)CC[C@]4(C)[C@H]3CC[C@]12C` [Testosterone propionate]: 1.14; for `C[C@@H]1CC[C@]2(NC1)O[C@H]1C[C@H]3[C@@H]4CC=C5C[C@@H](O)CC[C@]5(C)[C@H]4CC[C@]3(C)[C@H]1[C@@H]2C` [Solasodine]: 0.912; for `CN1C2CC(=O)CC1C(O)C2` (stereo not drawn) [6-Hydroxytropinone]: 0.985.
The value for `CN1C(=O)CCS(=O)(=O)C1c1ccc(Cl)cc1` (stereo not drawn) [Chlormezanone] was 0.811.
The same measure for `CO[C@@H]1C=C2CCN(C)[C@@H]2C2c3cc4c(cc3C(=O)OC21)OCO4` (stereo partly drawn) [Ungerine nitrate]: 1.18.
Turning to `CC(=O)[C@H]1CC[C@H]2[C@@H]3CC[C@H]4C[C@H](O)CC[C@]4(C)[C@H]3C(=O)C[C@]12C` [Alfaxalone], the “% Pdx1+ Ins1-low” value was 0.508.
The value for `CNC(=O)Oc1ccc2c(c1)[C@]1(C)CCN(C)[C@@H]1N2C` [Eserine sulfate, physostigmine sulfate] was 0.959; that for `CN(C)C(=O)Oc1cccc([N+](C)(C)C)c1` [Neostigmine bromide] was 1.35; that for `CCNCC(O)c1cccc(O)c1` (stereo not drawn) [Etilefrine hydrochloride] was 0.619.
The value for `CN1CCc2cc3c(cc2C1O)OCO3` (stereo not drawn) [Hydrastinine hydrochloride] was 0.89; that for `CC(C)C[C@H]1C(=O)N2CCC[C@H]2[C@]2(O)O[C@](NC(=O)[C@@H]3C=C4c5cccc6[nH]c(Br)c(c56)C[C@H]4N(C)C3)(C(C)C)C(=O)N12` [Bromocryptine mesylate] was 1.42.
As for `CN1[C@@H]2CC[C@H]1C[C@@H](OC(=O)C(CO)c1ccccc1)C2` (stereo partly drawn) [Atropine sulfate monohydrate], the “% Pdx1+ Ins1-low” value was 0.954.
For `CN1Cc2c(ccc3c2OCO3)C2C(O)Cc3cc4c(cc3C21)OCO4` (stereo not drawn) [Chelidonine (+)], the “% Pdx1+ Ins1-low” value was 0.921.
The same measure for `CNC(C)(C)Cc1ccccc1` [Mephentermine hemisulfate]: 1.29; for `CN1CCC2=C[C@H](O)[C@H]3OC(=O)c4cc5c(cc4[C@H]3[C@@H]21)OCO5` [Hippeastrine hydrobromide]: 1.29.
As to `CC1OC(OC2/C=C/C=C/C=C/C=C/CC/C=C/C=C/[C@H](C)[C@@H](O)[C@@H](C)[C@H](C)OC(=O)CC(O)CC(O)CC(O)CCC(O)C(O)C[C@]3(O)CC(O)C(C(=O)O)C(C2)O3)C(O)C(N)C1O` (stereo partly drawn) [Nystatine], the “% Pdx1+ Ins1-low” value stood at 1.16.
`NCCC(O)C(=O)NC1CC(N)C(OC2OC(CN)C(O)[C@H](O)[C@@H]2N)[C@H](OC2O[C@H](CO)[C@@H](O)[C@@H]2O)[C@@H]1O` (stereo partly drawn) [Butirosin disulfate salt]: the “% Pdx1+ Ins1-low” value was determined as 0.559.
Take `CC[C@H]1CN2CC[C@H]1C[C@H]2[C@H](O)c1ccnc2ccc(OC)cc12` [Hydroquinine hydrobromide hydrate]: the “% Pdx1+ Ins1-low” value came to 0.791.
The value for `O=c1[nH]c2ccccc2n1C1CCN(CCCC(c2ccc(F)cc2)c2ccc(F)cc2)CC1` [Pimozide] was 1.67; that for `Cc1cc2c(C(C)C)c(O)c(O)c(C=O)c2c(O)c1-c1c(C)cc2c(C(C)C)c(O)c(O)c(C=O)c2c1O` [Gossypol] was 0.926; that for `C#CCN(C)[C@H](C)Cc1ccccc1` [Selegiline hydrochloride] was 1.02.
The value for `C[C@@H]1O[C@@H](O[C@@H]2C=C3CC[C@@H]4[C@H](CC[C@]5(C)[C@@H](c6ccc(=O)oc6)CC[C@]45O)[C@@]3(C)CC2)[C@H](O)[C@H](O)[C@H]1O` [Proscillaridin A] was 1.23; that for `C[C@]12CC[C@@H](O)C[C@H]1CC[C@@H]1[C@@H]2CC[C@]2(C)C(=O)CC[C@@H]12` [3-alpha-Hydroxy-5-beta-androstan-17-one] was 1.08; that for `CNCC(O)c1ccc(O)c(OC)c1` (stereo not drawn) [Metanephrine hydrochloride DL] was 1.15.
The same measure for `Clc1ccc(C(OCCN2CCCCC2)c2ccccc2)cc1` (stereo not drawn) [Cloperastine hydrochloride]: 1.26; for `C[C@]12CC[C@H](O)C[C@H]1CC[C@@H]1[C@@H]2C[C@@H](O)[C@]2(C)[C@@H](C3=CC(=O)OC3)CC[C@]12O` [Digoxigenin]: 1.42; for `CC(Cc1ccccc1)NCCC(c1ccccc1)c1ccccc1` (stereo not drawn) [Prenylamine lactate]: 1.24.
Turning to `CC(=O)NC1CCSC1=O` (racemic) [N-Acetyl-DL-homocysteine Thiolactone], the “% Pdx1+ Ins1-low” value was determined as 1.03.
The same measure for `COc1cc2c(c(OC)c1OC)-c1ccc(O)c(=O)cc1[C@@H](N)CC2` [Trimethylcolchicinic acid]: 0.962; for `Cc1cccc(C)c1NC1=NCCCS1` [Xylazine]: 1.05; for `CO[C@H](C)[C@](O)(C(=O)OCC1=CCN2CC[C@H](O)[C@@H]12)C(C)C` [Heliotrine]: 1.14.
Regarding `O=P1(NCCCl)OCCCN1CCCl` (stereo not drawn) [Ifosfamide], the “% Pdx1+ Ins1-low” value turned out to be 0.784.
Turning to `C=C(C)[C@@H]1[C@H]2OC(=O)[C@@H]1[C@]1(O)C[C@H]3O[C@]34C(=O)O[C@H]2[C@]14C` [Picrotoxinin], the “% Pdx1+ Ins1-low” value was found to be 1.12.
The same measure for `CC(C)c1c(CN(C)C(C)Cc2ccccc2)n(C)n(-c2ccccc2)c1=O` (stereo not drawn) [Famprofazone]: 0.684; for `COc1cc2c(cc1OC)C(C)NCC2` (stereo not drawn): 1.21.
The same measure for `NC(=O)CN1CCCC1=O` [Piracetam]: 0.711; for `C=C[C@]12CN(C)[C@@H]3[C@H]4CO[C@H](C[C@H]41)[C@]1(C(=O)Nc4ccccc41)[C@@H]32` [Gelsemine]: 1.05.
The same measure for `Cc1c2ccncc2c(C)c2c1[nH]c1ccccc12` [Ellipticine]: 1.08; for `CC(=O)OCC(=O)[C@H]1CC[C@H]2[C@@H]3CC[C@H]4C[C@H](O)CC[C@]4(C)[C@H]3C(=O)C[C@]12C` [Alfadolone acetate]: 0.996.
Regarding `C[C@H]1C(=O)O[C@@H]2CCN3CC=C(COC(=O)[C@](C)(O)[C@]1(C)O)[C@H]23` [Monocrotaline], the “% Pdx1+ Ins1-low” value turned out to be 1.06.
The same measure for `CO[C@]12C[C@@H](COC(=O)c3cncc(Br)c3)CN(C)[C@@H]1Cc1cn(C)c3cccc2c13` [Nicergoline]: 1.11; for `CC(=O)OCC1=C(C(=O)O)N2C(=O)[C@@H](N)[C@H]2SC1` [Cephalosporanic acid, 7-amino]: 1.43.
